Data as given in patent US6387891B2, “COMPOUNDS WITH CHELATION AFFINITY AND SELECTIVITY FOR FIRST TRANSITION SERIES ELEMENTS AND THEIR USE IN COSMETICS AND PERSONAL CARE PRODUCTS, INHIBITION OF METALLOENZYMES, AND INHIBITION OF REPERFUSION INJURY” (Concat, Ltd., priority 2000, dated 2002).
At least one compound was matched to its structure with a doubt left.

System: 57 human cancer cell lines
Experiment: In vitro proliferation of 57 human cancer cell lines
Assay type: cell-based
Experimental: The ability of N-methyl-N′,N″-bis(dihydroxyphorylmethyl)-1,4,7-triazacyclononane to inhibit proliferation of 57 human cancer cell lines in vitro was evaluated employing published methods as published in J. Natl. Cancer Inst., 83:757-766, 1991. The concentration of agent that caused 50% inhibition of cell replication relative to controls [Gl50] were determined. In one set of experiments the mean midpoint of Gl50 for all cell lines tested was (10)^−4.72 with a delta value of (10)^2.95 and a range of (10)^3.67.

CN1CCN(CP(=O)(O)O)CCN(CP(=O)(O)O)CC1 [N-methyl-N′,N″-bis(dihydroxyphorylmethyl)-1,4,7-triazacyclononane]
delta value of Gl50: (10)^2.95
range of Gl50: (10)^3.67
mean midpoint of Gl50 for all cell lines tested (one set of experiments): (10)^−4.72
